Assay: USP Dissolution Apparatus Method 2 (in vitro dissolution)
Type: physicochemical
Settings: 37° C.; deionized water containing 5.0 wt. % sodium chloride
Procedure: • Particle Size Analysis. […] Dissolution obtained using the following method is also referred to herein as “in vitro dissolution”. The dissolution media used varied with the drug substance, and is specified below. The dissolution media was heated to 37° C. and degassed. Dissolution was performed utilizing three vessels per experiment. 11 to 12 mg of drug particles prepared according to the present invention was added to each vessel for dissolution analysis. Dissolution samples were filtered automatically into test tubes containing 0.1 mL of acetonitrile, mixed with a vortex mixer, filtered and analyzed by HPLC. Samples were taken at 2, 5, 10, 15, 20, 30, 60, and 120 minutes. At the 60 min. point the agitation speed was increased to 200 rpm to ensures complete dissolution by 120 minutes. The 120 min. reading is the infinity time reading and the infinity time is used to calculate the potency. […] Crystallinity was determined by X-ray diffraction methods using a Bruker D-8 automated diffractometer. • Atmospheric Freeze Drying (ATMFD). ATMFD was one method of solvent removal used in the following examples. Heat transfer fluid was circulated through the circulating jacket of the heat exchanger, that was used to cool the drying gas then to the jacket of the ATMFD unit. […]

COc1ccc2cc([C@H](C)C(=O)O)ccc2c1 [Naproxen]
Dissolution of bulk drug after 2 minutes: 0.29 wt %

Reference: patent US9175906B2, “Drug particles from freezing onto a surface” (BOARD OF REGENTS, THE UNIVERSITY OF TEXAS SYSTEM, priority 2003, dated 2015)
